The results in this text go back to the supplement of paper PMC10849652.

Protein sequences, listed by entry. Tags and fused reporters are not part of them. Lines headed by an entry give the natural chain unless they say otherwise; changes in a name come on top.
UniProt Q9H074: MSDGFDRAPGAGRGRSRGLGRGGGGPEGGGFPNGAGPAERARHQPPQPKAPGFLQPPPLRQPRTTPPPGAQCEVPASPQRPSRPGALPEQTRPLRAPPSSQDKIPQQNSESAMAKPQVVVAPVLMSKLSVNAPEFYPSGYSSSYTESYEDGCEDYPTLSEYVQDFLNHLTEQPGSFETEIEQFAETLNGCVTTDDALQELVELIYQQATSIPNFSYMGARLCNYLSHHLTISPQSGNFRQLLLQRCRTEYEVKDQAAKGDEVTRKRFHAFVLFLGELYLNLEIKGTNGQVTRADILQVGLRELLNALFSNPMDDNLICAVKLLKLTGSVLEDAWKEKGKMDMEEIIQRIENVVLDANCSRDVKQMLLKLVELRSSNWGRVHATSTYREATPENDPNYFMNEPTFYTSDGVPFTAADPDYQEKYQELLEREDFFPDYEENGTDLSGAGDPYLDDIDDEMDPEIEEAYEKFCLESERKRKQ
UniProt O00623: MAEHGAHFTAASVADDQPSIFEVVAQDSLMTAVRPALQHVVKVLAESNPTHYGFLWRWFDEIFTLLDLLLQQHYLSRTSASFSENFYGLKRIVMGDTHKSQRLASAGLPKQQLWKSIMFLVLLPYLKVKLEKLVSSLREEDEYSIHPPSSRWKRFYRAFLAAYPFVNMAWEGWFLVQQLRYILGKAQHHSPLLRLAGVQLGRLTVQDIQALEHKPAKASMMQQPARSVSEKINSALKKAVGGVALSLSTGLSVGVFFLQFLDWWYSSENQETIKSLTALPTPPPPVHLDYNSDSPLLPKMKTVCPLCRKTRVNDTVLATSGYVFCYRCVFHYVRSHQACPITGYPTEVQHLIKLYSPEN
UniProt O00330, whole entry, looked up: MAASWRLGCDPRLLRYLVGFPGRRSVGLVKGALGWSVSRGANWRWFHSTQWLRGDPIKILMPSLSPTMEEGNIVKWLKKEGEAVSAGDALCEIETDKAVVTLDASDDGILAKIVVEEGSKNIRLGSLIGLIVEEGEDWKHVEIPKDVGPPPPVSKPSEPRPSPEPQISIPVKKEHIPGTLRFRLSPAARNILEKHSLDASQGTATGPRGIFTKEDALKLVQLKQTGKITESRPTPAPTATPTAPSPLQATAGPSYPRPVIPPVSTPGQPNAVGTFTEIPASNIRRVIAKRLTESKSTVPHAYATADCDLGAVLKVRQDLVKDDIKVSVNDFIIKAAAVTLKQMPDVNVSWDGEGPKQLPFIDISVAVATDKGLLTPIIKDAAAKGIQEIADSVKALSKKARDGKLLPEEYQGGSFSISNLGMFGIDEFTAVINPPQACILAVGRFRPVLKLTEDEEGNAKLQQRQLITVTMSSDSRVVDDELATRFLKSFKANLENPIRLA
UniProt Q9NVE7: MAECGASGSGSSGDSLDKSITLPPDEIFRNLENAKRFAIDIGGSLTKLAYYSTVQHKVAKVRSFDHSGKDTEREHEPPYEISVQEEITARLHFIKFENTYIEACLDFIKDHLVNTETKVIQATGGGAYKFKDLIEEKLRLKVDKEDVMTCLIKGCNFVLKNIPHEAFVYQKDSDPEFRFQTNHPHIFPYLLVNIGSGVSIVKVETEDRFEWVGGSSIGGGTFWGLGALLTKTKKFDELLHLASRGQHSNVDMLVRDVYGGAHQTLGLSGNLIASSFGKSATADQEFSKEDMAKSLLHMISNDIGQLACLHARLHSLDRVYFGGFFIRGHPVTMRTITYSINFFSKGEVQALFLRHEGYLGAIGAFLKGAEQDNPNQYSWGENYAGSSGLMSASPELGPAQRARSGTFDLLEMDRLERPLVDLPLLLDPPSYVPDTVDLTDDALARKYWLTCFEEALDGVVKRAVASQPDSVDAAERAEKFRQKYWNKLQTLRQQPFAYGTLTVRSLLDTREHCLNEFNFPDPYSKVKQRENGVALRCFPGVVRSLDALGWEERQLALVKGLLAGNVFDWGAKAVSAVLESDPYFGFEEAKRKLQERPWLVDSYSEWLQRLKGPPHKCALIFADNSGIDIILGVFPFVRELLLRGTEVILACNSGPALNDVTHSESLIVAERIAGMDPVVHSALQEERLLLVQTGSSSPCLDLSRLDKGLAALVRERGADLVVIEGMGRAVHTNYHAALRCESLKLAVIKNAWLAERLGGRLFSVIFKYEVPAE
UniProt P50479: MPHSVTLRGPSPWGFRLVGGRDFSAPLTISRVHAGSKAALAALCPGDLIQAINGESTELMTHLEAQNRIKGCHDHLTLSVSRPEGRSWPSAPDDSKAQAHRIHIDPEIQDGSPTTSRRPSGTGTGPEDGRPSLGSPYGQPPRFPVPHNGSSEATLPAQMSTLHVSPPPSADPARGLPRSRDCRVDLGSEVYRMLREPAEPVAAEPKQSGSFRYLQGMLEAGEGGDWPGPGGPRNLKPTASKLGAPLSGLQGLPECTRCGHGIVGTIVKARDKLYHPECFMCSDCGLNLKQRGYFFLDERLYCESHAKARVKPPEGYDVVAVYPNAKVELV
UniProt Q6P996: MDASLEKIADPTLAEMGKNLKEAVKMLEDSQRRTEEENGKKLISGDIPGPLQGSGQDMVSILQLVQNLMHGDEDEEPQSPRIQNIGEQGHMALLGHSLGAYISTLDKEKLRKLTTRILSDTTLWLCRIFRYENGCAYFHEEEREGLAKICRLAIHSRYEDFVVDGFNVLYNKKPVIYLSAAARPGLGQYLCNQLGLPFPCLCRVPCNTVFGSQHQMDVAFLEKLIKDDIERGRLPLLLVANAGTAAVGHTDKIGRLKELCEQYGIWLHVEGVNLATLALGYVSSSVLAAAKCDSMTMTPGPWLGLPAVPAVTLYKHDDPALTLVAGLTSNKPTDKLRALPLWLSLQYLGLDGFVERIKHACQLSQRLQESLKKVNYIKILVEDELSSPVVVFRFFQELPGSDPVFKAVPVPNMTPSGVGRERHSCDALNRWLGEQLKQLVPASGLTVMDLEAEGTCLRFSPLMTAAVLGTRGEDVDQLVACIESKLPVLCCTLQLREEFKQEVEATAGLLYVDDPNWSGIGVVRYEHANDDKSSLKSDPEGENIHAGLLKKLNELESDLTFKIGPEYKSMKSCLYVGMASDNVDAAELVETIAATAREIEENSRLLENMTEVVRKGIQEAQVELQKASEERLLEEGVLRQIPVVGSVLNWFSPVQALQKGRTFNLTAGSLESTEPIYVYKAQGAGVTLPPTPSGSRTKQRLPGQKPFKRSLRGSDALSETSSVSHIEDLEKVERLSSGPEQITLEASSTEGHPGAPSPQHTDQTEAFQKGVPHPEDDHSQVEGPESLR
UniProt Q96RG2: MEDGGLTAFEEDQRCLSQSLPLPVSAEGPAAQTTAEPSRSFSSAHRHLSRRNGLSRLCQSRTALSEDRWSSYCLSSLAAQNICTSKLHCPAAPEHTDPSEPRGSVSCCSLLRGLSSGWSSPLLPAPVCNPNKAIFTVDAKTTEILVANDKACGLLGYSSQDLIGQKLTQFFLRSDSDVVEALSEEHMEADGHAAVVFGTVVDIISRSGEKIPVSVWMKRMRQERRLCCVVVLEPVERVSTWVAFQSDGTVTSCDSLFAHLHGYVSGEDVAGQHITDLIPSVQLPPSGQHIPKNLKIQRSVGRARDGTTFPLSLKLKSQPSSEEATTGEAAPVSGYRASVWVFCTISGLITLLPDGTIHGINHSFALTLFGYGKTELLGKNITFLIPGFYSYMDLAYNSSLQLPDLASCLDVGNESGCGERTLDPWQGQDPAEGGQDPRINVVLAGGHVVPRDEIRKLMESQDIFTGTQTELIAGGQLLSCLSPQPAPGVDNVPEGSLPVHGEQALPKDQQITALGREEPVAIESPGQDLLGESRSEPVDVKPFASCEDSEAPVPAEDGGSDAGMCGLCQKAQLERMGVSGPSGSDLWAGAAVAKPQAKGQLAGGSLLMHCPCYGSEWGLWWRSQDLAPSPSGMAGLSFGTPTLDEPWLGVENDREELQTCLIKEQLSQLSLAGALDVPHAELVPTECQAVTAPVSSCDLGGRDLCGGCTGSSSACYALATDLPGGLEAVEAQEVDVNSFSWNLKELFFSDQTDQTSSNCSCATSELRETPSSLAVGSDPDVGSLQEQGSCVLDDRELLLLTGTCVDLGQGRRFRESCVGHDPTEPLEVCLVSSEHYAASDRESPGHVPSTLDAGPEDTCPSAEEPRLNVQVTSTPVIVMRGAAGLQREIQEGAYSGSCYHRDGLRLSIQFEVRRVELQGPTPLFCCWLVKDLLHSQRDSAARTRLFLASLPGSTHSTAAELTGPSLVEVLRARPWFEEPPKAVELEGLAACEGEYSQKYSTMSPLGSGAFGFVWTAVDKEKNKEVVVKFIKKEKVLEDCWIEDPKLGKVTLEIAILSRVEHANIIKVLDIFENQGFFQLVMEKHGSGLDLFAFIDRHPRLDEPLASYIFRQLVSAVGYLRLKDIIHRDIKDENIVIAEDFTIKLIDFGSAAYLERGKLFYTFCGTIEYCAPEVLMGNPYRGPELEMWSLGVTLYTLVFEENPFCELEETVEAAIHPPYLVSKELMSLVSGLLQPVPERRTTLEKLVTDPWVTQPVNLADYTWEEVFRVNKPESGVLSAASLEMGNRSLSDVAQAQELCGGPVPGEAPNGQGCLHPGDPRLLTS
UniProt Q9BYG5: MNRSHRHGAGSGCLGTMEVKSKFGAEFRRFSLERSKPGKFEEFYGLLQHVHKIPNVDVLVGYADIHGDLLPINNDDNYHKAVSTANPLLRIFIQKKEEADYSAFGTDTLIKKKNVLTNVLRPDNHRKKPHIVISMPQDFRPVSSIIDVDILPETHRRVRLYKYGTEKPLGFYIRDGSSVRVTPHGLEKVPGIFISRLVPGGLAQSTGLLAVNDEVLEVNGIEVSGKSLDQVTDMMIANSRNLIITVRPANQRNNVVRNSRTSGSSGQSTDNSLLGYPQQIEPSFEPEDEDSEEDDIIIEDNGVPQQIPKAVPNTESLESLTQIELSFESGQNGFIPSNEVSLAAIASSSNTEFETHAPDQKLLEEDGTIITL
UniProt P30086: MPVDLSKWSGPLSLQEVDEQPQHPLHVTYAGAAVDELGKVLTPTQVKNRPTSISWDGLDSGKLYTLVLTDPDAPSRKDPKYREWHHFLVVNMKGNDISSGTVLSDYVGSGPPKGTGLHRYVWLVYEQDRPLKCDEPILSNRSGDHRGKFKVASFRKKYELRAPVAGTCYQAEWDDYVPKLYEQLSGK
UniProt Q96GD0: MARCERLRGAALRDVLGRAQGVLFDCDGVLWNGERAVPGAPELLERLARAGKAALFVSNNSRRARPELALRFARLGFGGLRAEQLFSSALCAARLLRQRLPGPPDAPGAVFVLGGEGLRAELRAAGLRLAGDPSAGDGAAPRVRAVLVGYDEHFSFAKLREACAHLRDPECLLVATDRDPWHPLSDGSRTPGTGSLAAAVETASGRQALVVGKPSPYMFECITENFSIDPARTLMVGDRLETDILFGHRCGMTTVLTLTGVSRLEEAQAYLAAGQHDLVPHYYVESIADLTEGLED
UniProt Q99497, whole entry, looked up: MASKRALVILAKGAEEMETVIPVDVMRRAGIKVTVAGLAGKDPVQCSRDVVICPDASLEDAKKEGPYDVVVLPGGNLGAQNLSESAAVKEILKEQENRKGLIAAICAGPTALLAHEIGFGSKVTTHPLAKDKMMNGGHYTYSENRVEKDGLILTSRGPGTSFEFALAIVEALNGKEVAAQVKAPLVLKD
UniProt O00541, whole entry, looked up: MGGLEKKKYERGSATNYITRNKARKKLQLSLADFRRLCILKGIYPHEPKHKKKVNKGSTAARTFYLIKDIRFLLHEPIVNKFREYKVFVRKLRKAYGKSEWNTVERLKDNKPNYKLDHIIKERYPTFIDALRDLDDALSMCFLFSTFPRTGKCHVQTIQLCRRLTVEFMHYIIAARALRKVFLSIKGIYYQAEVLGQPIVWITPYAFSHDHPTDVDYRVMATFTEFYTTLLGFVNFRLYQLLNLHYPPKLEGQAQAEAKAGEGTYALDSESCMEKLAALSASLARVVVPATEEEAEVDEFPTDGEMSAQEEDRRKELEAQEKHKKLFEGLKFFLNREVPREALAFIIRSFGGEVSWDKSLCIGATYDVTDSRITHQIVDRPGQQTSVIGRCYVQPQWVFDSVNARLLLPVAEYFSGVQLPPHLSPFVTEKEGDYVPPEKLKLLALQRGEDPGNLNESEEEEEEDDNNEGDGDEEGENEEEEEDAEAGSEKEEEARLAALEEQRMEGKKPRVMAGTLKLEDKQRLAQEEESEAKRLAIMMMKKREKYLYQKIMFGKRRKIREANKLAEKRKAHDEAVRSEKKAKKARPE
UniProt Q9NUG6, whole entry, looked up: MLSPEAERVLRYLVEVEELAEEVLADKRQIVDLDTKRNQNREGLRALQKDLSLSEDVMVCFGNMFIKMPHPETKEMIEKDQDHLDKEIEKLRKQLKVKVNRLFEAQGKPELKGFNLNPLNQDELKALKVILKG
UniProt P22061: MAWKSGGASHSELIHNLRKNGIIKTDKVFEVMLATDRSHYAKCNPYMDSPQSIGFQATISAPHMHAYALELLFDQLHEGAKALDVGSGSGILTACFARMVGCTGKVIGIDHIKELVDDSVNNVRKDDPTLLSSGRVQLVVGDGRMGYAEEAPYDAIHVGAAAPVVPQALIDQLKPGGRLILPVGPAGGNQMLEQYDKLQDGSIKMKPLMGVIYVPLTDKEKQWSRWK

Some of the results follow.

Compound in one assay: Cc1ncc(-c2ccnc(Nc3ccc(S(C)(=O)=O)cc3)n2)n1C(C)C
The assay can be described thus: log2 fold change, soluble protein after heating vs DMSO (PISA); higher = thermal stabilisation; K562 cells, 10 uM, 30 min; active = over 0.2 and 3.5 SD of the protein, either way, in both replicates (recomputed). The method, boiled down: (§1)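 Quantification of soluble protein used TMTpro 16plex LC-MS/MS, with channel sums equalised. Samples were the supernatant after 21,000xg for 90 min of pooled aliquots from K562 cells (2×10^6 cells/mL) treated with 10 μM compound for 30 min, heated for 3 min over 48°C-58°C, and extracted in PBS with 0.5% NP-40 at 4°C. Values, from duplicates, describe thermal stability against control samples on a log2 fold-change scale.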
For PEPD (UniProt P12955), the log2 fold change is inactive: 0.039.
Take PDCD10 (UniProt Q9BUL8): the log2 fold change was inactive: -0.026.
The same measure, in the same setting: the figure for PAPOLA (UniProt P51003) is inactive: -0.003; for PARVB (UniProt Q9HBI1) it is inactive: -0.011.
Regarding PANX1 (UniProt Q96RD7), the log2 fold change was inactive: -0.01.
In the case of PAFAH1B1 (UniProt P43034), the log2 fold change was inactive: -0.002.
As to PDIA3 (UniProt P30101), the log2 fold change is inactive: -0.033.
As to PDHB (UniProt P11177), the log2 fold change is inactive: -0.024.
Consider PAIP1 (UniProt Q9H074), for which the log2 fold change was inactive: 0.042.
With PDCL (UniProt Q13371), the log2 fold change is inactive: -0.001.

Compound in a further assay: Cn1cc(-c2ccc3c(c2)CCN3C(=O)Cc2cccc(C(F)(F)F)c2)c2c(N)ncnc21
The assay is described as above. The method, boiled down:
as §1
Consider PEX12 (UniProt O00623), for which the log2 fold change is inactive: 0.122.
In the case of PDHX (UniProt O00330), the log2 fold change is inactive: -0.316.
For PANK4 (UniProt Q9NVE7), the log2 fold change was inactive: 0.025.
As to PDSS1 (UniProt Q5T2R2), the log2 fold change is inactive: 0.138.
With PDLIM1 (UniProt O00151), the log2 fold change is inactive: 0.004.
On the same count and under the same terms, the figure for PDLIM4 (UniProt P50479) is inactive: 0.032.
Consider PAK2 (UniProt Q13177), for which the log2 fold change is inactive: 0.
Turning to PACSIN2 (UniProt Q9UNF0), the log2 fold change is inactive: 0.069.
In the case of PDXDC1 (UniProt Q6P996), the log2 fold change is inactive: -0.118.
On the same count and under the same terms, the value for PASK (UniProt Q96RG2) was inactive: 0.013; that for PARD6B (UniProt Q9BYG5) was inactive: 0.034; that for PEBP1 (UniProt P30086) was inactive: 0.014.
As for PCYOX1 (UniProt Q9UHG3), the log2 fold change was inactive: -0.123.
For PDXP (UniProt Q96GD0), the log2 fold change was inactive: 0.04.
On to PER3 isoform 2 (UniProt P56645), for which the log2 fold change is inactive: -0.021.
On to PEX1 (UniProt O43933), for which the log2 fold change was inactive: -0.003.
As to PARK7 (UniProt Q99497), the log2 fold change was inactive: 0.09.
As to PAK1IP1 (UniProt Q9NWT1), the log2 fold change was inactive: -0.308.
For PES1 (UniProt O00541), the log2 fold change is inactive: -0.081.
In the case of PDRG1 (UniProt Q9NUG6), the log2 fold change was inactive: 0.018.
For PDXK (UniProt O00764), the log2 fold change is inactive: -0.031.
PABPC4 isoform 3 (UniProt Q13310): the log2 fold change was inactive: -0.124.
Consider PCMT1 isoform 2 (UniProt P22061), for which the log2 fold change is inactive: 0.05.
Turning to PEPD (UniProt P12955), the log2 fold change was inactive: 0.023.
For the target PDCD10 (UniProt Q9BUL8), the log2 fold change is inactive: 0.018.
As to PAPOLA (UniProt P51003), the log2 fold change is inactive: 0.015.
In the case of PARVB (UniProt Q9HBI1), the log2 fold change is inactive: 0.019.
In the case of PANX1 (UniProt Q96RD7), the log2 fold change was inactive: 0.034.
Take PAFAH1B1 (UniProt P43034): the log2 fold change is inactive: 0.
Take PDIA3 (UniProt P30101): the log2 fold change was inactive: -0.051.
PDHB (UniProt P11177): the log2 fold change is inactive: -0.074.
Still for that read-out and setting: the value for PAIP1 (UniProt Q9H074) was inactive: 0.011; that for PDCL (UniProt Q13371) was inactive: 0.022.
